Library screening results

Sequences of proteins named here, by UniProt entry; tags and fusion partners are left off.
UniProt E9BF75, entry or part of it: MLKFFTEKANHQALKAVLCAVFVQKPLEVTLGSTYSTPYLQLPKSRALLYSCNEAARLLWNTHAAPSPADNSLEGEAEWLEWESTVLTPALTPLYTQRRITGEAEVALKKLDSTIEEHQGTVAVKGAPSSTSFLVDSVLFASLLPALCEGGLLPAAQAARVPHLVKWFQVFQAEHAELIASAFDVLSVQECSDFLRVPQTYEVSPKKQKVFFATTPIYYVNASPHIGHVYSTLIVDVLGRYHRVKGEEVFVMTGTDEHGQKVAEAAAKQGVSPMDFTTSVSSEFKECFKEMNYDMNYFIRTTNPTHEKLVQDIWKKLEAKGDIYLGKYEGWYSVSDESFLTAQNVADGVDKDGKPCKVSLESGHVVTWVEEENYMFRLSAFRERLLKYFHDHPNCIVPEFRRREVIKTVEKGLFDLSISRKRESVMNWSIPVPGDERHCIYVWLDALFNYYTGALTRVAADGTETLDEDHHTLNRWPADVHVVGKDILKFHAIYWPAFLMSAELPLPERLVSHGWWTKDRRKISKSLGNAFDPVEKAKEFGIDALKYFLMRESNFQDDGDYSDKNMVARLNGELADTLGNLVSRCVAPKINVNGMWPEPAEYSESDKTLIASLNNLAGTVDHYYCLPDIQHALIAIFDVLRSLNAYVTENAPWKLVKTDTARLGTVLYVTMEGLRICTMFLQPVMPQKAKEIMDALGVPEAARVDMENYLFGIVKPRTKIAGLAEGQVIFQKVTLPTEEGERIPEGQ

Results are percentages, as filed.
How 0% and 100% were set is not recorded. Most values in the screen are low, and negative values occur.
This is an unselected part of the compounds tested.

A: 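Methionyl-tRNA synthetase (putative), Leishmania donovani (UniProt E9BF75). Primary screen of methionyl-tRNA synthetase; the read-out is not stated. The test concentration is not given. Values are per cent inhibition. Of about 68,000 compounds tested this way, about 24 (0.035%) reached 50% or more in at least one test.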
B: 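Assay on Mycobacterium tuberculosis, filed only as a heat shock assay from Cornell; the read-out is not stated. The concentration is filed as 10 mM, unlikely as a test dose, so the dose is not known. The record gives no direction; compounds that gave an IC50 in retests scored well above the rest, so higher reads as stronger inhibition. About 69,000 compounds were tested under these conditions; 1.4% (about 930) showed 50% or more at least once.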

{"smiles": "Cc1noc([C@H]2COC[C@H]3CN(C(=O)Cc4cccs4)C[C@H]32)n1", "A": 21.04}
{"smiles": "[H][C@]12CC[C@]([H])(CN(C(=O)CSc3ccncc3)C1)N(CC=C(C)C)C2", "B": -16.64}
{"smiles": "CC(C)c1nnc(C2CCN(CC(=O)Nc3cccnc3)CC2)o1", "A": 12.15, "B": -10.81}
{"smiles": "CC(c1nnc(-c2cccs2)o1)N1CCn2c(nnc2C2CC2)C1", "stereo": "stereo not shown", "A": 3.623, "B": 0.1108}
{"smiles": "O=C(NC1CCCCNC1=O)c1cc2ccccc2[nH]c1=O", "stereo": "stereo not shown", "A": 6.115, "B": -11.13}
{"smiles": "O=S1(=O)CCC(NCCn2cncc2-c2ccc3c(c2)CCCO3)C1", "stereo": "stereo not shown", "A": 12.6}
{"smiles": "CC(C)(NS(C)(=O)=O)c1nc(-c2ccc(F)cc2Cl)no1", "A": 20.43, "B": -3.08}
{"smiles": "C[C@@H](NC(=O)c1cccs1)c1onc(-c2cccnc2)c1C(=O)O.Cl", "B": -40.56}
{"smiles": "O=C(O)C(F)(F)F.[H][C@@]12CCN(Cc3ccoc3)[C@]1([H])CC[C@@H](C(=O)N1CCCC1)O2", "B": 1.161}
{"smiles": "O=C(CCC1CCCN(C(=O)CCc2ccc(F)c(F)c2)C1)NC1CC1", "stereo": "stereo not shown", "A": 10.92, "B": 10.23}
{"smiles": "NC(=O)C1Cn2ccnc2C2(CCN(C(=O)NC3CCCC3)CC2)O1", "stereo": "stereo not shown", "A": 12.4}
{"smiles": "CN(CCCc1n[nH]c(N)c1C#N)C(=O)Nc1cc(Cl)cc(Cl)c1", "A": 9.375, "B": 3.557}
{"smiles": "COc1ccc(-c2csc3c2c(N)nc(=O)n3CCN(C)C)cc1", "A": 13.64, "B": 12.99}
{"smiles": "CN(C(=O)CC1=CCCCC1)C1CCCN(C2Cc3ccccc3C2)C1", "stereo": "stereo not shown", "A": 15.38, "B": 6.373}
{"smiles": "CCOc1ccc2ccccc2c1CNCC1CCNCC1.Cl.Cl", "B": -22.08}
{"smiles": "CCS(=O)(=O)N1CC[C@]2(C[C@@H](OCC3CC3)CO2)C1", "A": 13.01, "B": -7.148}
{"smiles": "CN1CCC(Nc2ccc(Cl)cc2OCC(F)(F)F)C1=O", "stereo": "stereo not shown", "A": 16.48, "B": 11.08}
{"smiles": "Cc1ccc(C)n1-c1ccc(C(=O)NCCNc2ncccn2)cc1", "A": 11.81, "B": 22.34}
{"smiles": "O=C(CC1CSc2nccc(=O)n21)NCc1cc(-c2ccco2)on1", "stereo": "stereo not shown", "A": -3.106, "B": 7.186}
{"smiles": "C=CNC(=O)c1nnc2ccc(N3CCOCC3)cc2n1", "A": 3.769, "B": 1.699}
{"smiles": "O=C(c1ccnnc1)N1C[C@H](OCC2CCOCC2)[C@H]2OCCC[C@H]21", "A": 6.25}
{"smiles": "CNS(=O)(=O)c1cccc(C(C)NCc2ccc(F)cc2F)c1", "stereo": "stereo not shown", "A": 7.692, "B": 10.77}
{"smiles": "Cc1cc(NCC(=O)N(C)Cc2cccs2)c(C(N)=O)cc1F", "A": 20.16, "B": -25.38}
{"smiles": "CN1CCCc2sc(C(=O)NC3CC3)nc21", "A": 11.64, "B": -22.87}
{"smiles": "COc1ccccc1OCCc1cc(C2CCNC2)n[nH]1.Cl.Cl", "stereo": "stereo not shown", "B": -6.062}
{"smiles": "CCc1nc(N2CCC3(CC2)CC(=O)N(Cc2ccc(Cl)cc2)C3)no1", "A": 4.077, "B": -15.78}
{"smiles": "CCC(CC)CN(C)Cc1nc(-c2ccccc2NS(C)(=O)=O)oc1C", "A": 4.61, "B": 11.06}
{"smiles": "CC(=O)c1ccc(N2CCN(C(=O)NCc3cc[nH]n3)CC2)cc1", "A": 17.6, "B": 10.4}
{"smiles": "COc1ccccc1CCN(C)Cc1nc(N)nc(N(C)C)n1", "A": 13.13, "B": 10.83}
{"smiles": "CC(C)n1cnc2c1C(C(=O)NCCC#N)N(Cc1ccccc1)CC2.O=C(O)C(F)(F)F", "stereo": "stereo not shown", "B": 0.1867}
{"smiles": "CC(C)c1ccc(-n2cc(O)c(C(=O)O)n2)cc1", "A": 8.447, "B": 22.65}
{"smiles": "CC(C)c1ncc(Cl)c(C(=O)N2CCCN3CCCC3C2)n1", "stereo": "stereo not shown", "A": 9.851, "B": 2.53}
{"smiles": "CC(=O)NC[C@]1(O)CCN(C(=O)c2ccc(C)c(F)c2)C[C@H]1O", "A": 7.765, "B": -6.2}
{"smiles": "CC1CCN(CCNC(=O)c2ccccc2N2CCOCC2)CC1", "A": 15.5, "B": -13.05}
{"smiles": "O=C(O)C(F)(F)F.O=C(O)C(F)(F)F.[H][C@@]12CCN(Cc3ccncc3)C[C@@]1([H])O[C@H](C(=O)NC1CCC1)C2", "B": 7.073}
{"smiles": "[H][C@@]12CNC[C@]1([H])N(C(=O)C1CCC1)CCO2", "B": -37.26}
{"smiles": "[H][C@@]12CN(Cc3cc(C)cc(C)c3)C[C@]1([H])OCCN2S(=O)(=O)N(C)C", "B": -1.581}
{"smiles": "Cc1cc(C2CCCN2C(=O)CN2CCc3ccccc32)on1", "stereo": "stereo not shown", "A": 6.529, "B": 13.12}
{"smiles": "COCc1nc(C(=O)N2CCCC2c2ccncc2)cs1", "stereo": "stereo not shown", "A": 7.736, "B": -11.07}
{"smiles": "Cc1cnn(C2CCCN(C(=O)c3c(C)oc(C)c3C)C2)c1", "stereo": "stereo not shown", "A": 8.156, "B": 45.12}
{"smiles": "Cc1nnc(N2CC[C@H]3C[C@H](C(=O)N(C)C)O[C@@H]3C2)s1", "A": 6.965}
{"smiles": "CC(C)(C)OC(=O)NC(C)(C)c1noc(CSc2nncs2)n1", "A": 5.245, "B": -29.19}
{"smiles": "CCc1n[nH]c(C2CN(Cc3ncc(CC)o3)CCO2)n1", "stereo": "stereo not shown", "A": -8.247, "B": -30.6}

Repeated from the top, 3 entries:

* Cc1noc([C@H]2COC[C@H]3CN(C(=O)Cc4cccs4)C[C@H]32)n1 : A: 21.04%
* [H][C@]12CC[C@]([H])(CN(C(=O)CSc3ccncc3)C1)N(CC=C(C)C)C2 : B: -16.64%
* CC(C)c1nnc(C2CCN(CC(=O)Nc3cccnc3)CC2)o1 : A: 12.15%; B: -10.81%

Measurements from “University of Dundee, Small-Polar-MMV Screening Library” (2021), ChEMBL document CHEMBL3988442.